Data as given in patent publication US20260345596A1, “TREATMENT OF LOCALLY ADVANCED OR METASTATIC UROTHELIAL CARCINOMA WITH ERDAFINITIB” (priority 2023, published 2026).

The chains behind the UniProt entries cited, without tags or fusion partners. Where a name states a change or a piece, a line headed by the entry shows the natural chain unless it says otherwise. Residues count along the entry.
UniProt Q4U2R8: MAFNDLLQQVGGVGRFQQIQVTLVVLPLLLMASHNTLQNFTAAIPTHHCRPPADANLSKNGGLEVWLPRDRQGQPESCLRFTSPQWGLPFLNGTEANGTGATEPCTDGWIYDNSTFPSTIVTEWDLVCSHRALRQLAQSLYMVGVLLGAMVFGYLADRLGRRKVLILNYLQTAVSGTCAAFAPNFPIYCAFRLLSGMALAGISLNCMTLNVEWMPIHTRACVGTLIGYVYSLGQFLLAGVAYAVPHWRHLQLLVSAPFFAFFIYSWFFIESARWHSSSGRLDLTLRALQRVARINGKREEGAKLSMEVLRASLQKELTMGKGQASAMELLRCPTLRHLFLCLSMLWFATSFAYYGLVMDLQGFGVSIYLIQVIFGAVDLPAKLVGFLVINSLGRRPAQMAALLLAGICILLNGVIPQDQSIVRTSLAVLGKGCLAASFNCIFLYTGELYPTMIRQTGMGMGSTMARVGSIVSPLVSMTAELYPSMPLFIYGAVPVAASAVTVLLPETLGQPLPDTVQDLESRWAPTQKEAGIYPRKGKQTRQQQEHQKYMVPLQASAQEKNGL
UniProt Q86VL8, 1-566 isoform Q86VL8-3: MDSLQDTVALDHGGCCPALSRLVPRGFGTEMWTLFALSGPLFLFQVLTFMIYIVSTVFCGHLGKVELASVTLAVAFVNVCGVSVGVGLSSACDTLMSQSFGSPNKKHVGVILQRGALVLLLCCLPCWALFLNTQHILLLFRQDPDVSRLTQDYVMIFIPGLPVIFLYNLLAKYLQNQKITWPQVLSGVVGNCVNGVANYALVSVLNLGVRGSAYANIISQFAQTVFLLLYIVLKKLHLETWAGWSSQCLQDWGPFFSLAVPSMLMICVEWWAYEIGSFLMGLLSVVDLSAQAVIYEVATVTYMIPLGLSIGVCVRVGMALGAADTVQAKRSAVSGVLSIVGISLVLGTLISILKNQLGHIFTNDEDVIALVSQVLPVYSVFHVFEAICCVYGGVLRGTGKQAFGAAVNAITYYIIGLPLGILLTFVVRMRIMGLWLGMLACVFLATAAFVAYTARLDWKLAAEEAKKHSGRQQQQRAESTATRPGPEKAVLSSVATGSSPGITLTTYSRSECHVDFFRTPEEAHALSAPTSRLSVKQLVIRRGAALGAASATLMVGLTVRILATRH
UniProt O15245: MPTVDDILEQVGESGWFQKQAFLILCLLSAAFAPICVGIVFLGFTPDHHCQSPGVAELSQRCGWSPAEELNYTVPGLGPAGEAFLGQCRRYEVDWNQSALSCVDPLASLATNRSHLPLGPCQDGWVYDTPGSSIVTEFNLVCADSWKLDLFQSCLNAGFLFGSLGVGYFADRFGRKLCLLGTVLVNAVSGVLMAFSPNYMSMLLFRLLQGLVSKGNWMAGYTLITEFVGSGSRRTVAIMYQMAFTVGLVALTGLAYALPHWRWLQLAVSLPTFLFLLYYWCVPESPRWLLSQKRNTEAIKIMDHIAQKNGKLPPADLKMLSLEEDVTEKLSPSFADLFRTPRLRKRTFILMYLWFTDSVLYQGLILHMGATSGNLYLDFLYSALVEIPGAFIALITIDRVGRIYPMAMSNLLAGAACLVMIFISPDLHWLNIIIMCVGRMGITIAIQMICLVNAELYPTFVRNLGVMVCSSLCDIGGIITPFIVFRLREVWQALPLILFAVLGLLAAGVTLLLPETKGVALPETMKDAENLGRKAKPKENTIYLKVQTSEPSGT
UniProt P08183, whole entry: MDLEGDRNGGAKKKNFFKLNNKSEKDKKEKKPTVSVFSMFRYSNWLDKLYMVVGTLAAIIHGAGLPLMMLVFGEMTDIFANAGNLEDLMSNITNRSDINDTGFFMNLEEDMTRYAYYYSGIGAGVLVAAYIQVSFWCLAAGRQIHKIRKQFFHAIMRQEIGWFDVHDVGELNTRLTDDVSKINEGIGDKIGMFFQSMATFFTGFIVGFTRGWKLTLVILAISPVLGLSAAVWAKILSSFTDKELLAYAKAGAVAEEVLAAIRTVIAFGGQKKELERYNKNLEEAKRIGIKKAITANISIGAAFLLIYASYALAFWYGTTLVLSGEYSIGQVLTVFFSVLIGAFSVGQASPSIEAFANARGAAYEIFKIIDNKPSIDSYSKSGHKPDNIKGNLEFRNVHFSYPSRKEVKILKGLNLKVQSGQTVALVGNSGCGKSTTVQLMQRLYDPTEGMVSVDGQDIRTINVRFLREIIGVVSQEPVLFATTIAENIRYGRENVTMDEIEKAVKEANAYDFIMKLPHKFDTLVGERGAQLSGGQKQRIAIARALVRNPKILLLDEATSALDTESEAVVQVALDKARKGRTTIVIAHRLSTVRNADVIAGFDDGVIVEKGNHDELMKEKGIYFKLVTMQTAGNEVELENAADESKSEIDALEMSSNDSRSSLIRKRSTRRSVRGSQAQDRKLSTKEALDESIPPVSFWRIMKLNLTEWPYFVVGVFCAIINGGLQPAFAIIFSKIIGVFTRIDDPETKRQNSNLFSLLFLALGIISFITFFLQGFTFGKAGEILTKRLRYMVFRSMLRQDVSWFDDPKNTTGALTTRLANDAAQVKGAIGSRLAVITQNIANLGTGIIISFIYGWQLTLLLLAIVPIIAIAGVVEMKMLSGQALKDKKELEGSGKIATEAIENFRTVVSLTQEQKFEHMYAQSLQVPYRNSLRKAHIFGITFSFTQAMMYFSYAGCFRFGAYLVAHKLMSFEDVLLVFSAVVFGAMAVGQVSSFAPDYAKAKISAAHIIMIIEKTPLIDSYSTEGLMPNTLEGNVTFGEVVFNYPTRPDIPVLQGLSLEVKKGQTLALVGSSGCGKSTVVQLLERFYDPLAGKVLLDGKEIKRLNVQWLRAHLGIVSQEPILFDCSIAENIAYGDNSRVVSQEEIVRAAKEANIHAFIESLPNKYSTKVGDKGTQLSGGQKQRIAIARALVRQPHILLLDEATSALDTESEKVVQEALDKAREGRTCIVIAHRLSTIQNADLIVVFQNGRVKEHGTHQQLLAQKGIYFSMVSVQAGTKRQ
UniProt Q8TCC7: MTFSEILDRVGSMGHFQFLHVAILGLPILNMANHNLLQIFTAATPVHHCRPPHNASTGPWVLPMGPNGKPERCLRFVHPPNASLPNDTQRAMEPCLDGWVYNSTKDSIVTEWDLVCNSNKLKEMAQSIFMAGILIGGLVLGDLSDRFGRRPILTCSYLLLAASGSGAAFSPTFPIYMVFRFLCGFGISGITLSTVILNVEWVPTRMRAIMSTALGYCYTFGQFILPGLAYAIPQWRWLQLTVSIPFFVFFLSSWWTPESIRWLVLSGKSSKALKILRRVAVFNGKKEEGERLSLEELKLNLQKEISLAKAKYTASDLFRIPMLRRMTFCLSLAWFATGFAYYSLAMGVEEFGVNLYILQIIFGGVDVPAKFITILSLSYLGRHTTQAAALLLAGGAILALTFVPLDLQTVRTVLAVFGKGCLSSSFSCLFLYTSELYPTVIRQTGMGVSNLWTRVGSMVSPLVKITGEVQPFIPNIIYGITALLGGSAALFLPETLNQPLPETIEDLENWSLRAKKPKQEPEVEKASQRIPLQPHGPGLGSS
UniProt P08684, whole entry: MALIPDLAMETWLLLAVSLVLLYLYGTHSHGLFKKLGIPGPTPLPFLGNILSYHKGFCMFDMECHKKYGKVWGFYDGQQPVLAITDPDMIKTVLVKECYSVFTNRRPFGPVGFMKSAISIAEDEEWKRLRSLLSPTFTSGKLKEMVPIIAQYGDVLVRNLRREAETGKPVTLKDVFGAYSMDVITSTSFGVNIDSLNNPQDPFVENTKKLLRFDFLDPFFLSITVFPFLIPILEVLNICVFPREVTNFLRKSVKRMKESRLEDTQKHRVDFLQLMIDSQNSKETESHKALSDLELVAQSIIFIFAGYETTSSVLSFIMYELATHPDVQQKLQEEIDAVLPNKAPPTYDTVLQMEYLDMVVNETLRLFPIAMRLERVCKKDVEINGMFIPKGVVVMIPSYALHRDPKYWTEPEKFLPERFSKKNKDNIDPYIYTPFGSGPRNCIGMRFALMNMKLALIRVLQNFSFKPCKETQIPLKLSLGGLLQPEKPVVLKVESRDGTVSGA
UniProt Q9NPD5: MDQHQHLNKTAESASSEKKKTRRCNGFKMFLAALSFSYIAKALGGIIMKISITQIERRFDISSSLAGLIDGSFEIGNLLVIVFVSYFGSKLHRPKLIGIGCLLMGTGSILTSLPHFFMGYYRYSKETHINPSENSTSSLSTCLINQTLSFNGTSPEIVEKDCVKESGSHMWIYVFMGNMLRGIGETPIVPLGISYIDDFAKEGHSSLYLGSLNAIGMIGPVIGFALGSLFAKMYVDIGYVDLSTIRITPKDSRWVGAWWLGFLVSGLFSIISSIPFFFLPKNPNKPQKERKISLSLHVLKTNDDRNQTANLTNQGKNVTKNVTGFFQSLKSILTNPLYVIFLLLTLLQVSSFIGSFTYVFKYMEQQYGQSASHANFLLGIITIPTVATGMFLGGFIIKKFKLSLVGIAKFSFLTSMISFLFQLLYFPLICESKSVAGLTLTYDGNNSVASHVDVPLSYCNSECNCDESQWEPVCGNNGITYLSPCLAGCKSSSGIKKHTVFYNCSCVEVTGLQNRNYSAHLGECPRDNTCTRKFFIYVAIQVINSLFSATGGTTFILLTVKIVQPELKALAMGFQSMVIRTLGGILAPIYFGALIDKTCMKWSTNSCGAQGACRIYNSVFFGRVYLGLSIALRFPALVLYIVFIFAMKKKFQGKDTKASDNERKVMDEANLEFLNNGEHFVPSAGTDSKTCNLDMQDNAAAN
UniProt Q96FL8: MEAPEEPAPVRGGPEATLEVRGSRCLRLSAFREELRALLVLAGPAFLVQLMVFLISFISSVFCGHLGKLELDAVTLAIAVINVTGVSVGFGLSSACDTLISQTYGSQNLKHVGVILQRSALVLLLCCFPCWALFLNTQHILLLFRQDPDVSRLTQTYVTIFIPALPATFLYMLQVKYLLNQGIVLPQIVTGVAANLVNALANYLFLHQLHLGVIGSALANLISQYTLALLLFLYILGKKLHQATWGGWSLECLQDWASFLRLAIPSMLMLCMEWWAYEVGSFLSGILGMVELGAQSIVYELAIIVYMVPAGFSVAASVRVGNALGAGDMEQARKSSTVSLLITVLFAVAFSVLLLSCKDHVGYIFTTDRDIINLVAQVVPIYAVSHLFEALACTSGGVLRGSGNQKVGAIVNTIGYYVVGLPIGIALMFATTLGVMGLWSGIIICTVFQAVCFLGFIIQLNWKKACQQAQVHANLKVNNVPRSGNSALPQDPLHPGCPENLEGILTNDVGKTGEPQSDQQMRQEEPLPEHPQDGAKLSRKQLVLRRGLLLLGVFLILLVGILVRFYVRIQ
UniProt O15244: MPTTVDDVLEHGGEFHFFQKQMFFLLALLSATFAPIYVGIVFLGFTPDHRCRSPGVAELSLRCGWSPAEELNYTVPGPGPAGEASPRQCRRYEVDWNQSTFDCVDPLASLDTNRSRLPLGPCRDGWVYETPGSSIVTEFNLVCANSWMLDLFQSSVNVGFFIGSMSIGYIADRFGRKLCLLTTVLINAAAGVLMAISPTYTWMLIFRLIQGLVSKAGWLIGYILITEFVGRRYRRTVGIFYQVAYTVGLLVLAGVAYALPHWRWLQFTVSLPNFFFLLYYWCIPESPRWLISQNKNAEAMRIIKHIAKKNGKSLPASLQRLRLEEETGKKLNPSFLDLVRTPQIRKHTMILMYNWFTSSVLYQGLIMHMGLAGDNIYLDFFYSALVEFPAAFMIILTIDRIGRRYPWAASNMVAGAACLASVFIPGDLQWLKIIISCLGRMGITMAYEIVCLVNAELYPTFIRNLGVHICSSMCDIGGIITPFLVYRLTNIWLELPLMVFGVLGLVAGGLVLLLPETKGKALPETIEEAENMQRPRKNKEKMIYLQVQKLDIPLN
UniProt P11712, whole entry: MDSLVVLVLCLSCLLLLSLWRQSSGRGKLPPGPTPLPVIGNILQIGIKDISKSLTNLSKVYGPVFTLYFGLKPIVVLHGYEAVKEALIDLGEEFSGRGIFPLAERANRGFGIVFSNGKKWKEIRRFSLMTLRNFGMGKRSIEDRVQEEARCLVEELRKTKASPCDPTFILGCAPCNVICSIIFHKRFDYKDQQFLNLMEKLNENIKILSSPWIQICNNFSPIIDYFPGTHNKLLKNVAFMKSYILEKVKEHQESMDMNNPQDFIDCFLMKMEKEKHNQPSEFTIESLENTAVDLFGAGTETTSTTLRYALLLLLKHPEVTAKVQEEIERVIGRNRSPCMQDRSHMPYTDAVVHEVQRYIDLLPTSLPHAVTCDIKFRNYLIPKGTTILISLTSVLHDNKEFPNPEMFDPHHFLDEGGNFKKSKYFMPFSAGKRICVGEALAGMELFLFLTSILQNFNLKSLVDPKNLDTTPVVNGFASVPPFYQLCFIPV

Experiments:
[1] = system: rat bone marrow; assay: In vivo rat bone marrow micronucleus assay
[2] = target: OAT1 (Homo sapiens, UniProt Q4U2R8); conditions: clinically relevant concentrations
[3] = target: MATE-2K (Homo sapiens, UniProt Q86VL8); conditions: clinically relevant concentrations
[4] = target: OCT1 (Homo sapiens, UniProt O15245); conditions: clinically relevant concentrations
[5] = system: other major CYP isozymes; conditions: role: inhibitor; clinically relevant concentrations
[6] = target: P-gp (Homo sapiens, UniProt P08183); conditions: in vitro
[7] = target: OAT3 (Homo sapiens, UniProt Q8TCC7); conditions: clinically relevant concentrations
[8] = target: T1, CYP3A4 (Homo sapiens, UniProt P08684); conditions: role: inhibitor; in vitro
[9] = target: OATP1B3 (Homo sapiens, UniProt Q9NPD5); conditions: clinically relevant concentrations
[10] = system: OATP1B; conditions: clinically relevant concentrations
[11] = Study BLC3001 (NCT03390504, THOR) Cohort 1: safety, adverse events, laboratory abnormalities and exposure; conditions: for Acute kidney injury: serious adverse events, any cause
[12] = target: MATE-1 (Homo sapiens, UniProt Q96FL8); conditions: clinically relevant concentrations
[13] = target: T1, CYP3A4; conditions: role: substrate; estimated
[14] = system: FGFR-expressing cell lines
[15] = system: BCRP; conditions: clinically relevant concentrations
[16] = target: OCT2 (Homo sapiens, UniProt O15244); conditions: in vitro
[17] = target: T2, CYP2C9 (Homo sapiens, UniProt P11712); conditions: role: substrate; estimated
[18] = system: xenograft models derived from tumor types, including bladder cancer
[19] = target: T2, CYP2C9; conditions: CYP2C9*1/*2 and *1/*3 relative to *1/*1
[20] = adverse events leading to death
[21] = leading to treatment discontinuation

For COc1cc(OC)cc(N(CCNC(C)C)c2ccc3ncc(-c4cnn(C)c4)nc3c2)c1 [Erdafitinib, N-(3,5-dimethoxyphenyl)-N′-(1-methylethyl)-N-[3-(1-methyl-1H-pyrazol-4-yl)quinoxalin-6-yl]ethane-1,2-diamine], the “Clastogenicity, in vivo rat bone marrow micronucleus” value [1] was “not clastogenic”, the OAT1 inhibition [2] was “does not inhibit” and the MATE-2K inhibition [3] was “does not inhibit”. The OCT1 inhibition [4] was “does not inhibit”, the “Inhibition of other major CYP isozymes” value [5] was “not an inhibitor of other major CYP isozymes at clinically relevant concentrations” and the “P-gp substrate / inhibition” value [6] was “substrate and inhibitor of P-gp”. The OAT3 inhibition [7] was “does not inhibit”, the “CYP3A4 inhibition / induction” value [8] was “time dependent inhibitor and inducer of CYP3A4” and the OATP1B3 inhibition [9] was “does not inhibit”. The OATP1B inhibition [10] was “does not inhibit”, the Acute kidney injury ([11]; Grade 1) was 0 no. (%) and the Nail discoloration ([11]; Grade 1, treatment-emergent) was 16 (11.9) no. (%). The Nail discoloration ([11]; Grade 1, treatment-related) was 16 (11.9) no. (%), the Acute kidney injury ([11]; Grade 2) was 0 no. (%) and the Nail discoloration ([11]; Grade 2, treatment-emergent) was 7 (5.2) no. (%). For the same compound, the Nail discoloration ([11]; Grade 2, treatment-related) was 7 (5.2) no. (%), the Acute kidney injury ([11]; Grade ≥3) was 3 (2.2) no. (%) and the Nail discoloration ([11]; Grade ≥3, treatment-emergent) was 1 (0.7) no. (%). The Nail discoloration ([11]; Grade ≥3, treatment-related) was 1 (0.7) no. (%), the “General physical health deterioration” value [11, 20] was 0 no. (%) and the Pneumonia aspiration [11, 20] was 1 (0.7) no. (%). For the same compound, the Acute kidney injury ([11]; any grade) was 3 (2.2) no. (%), the Nail discoloration ([11]; any grade, treatment-related) was 24 (17.8) no. (%) and the “General physical health deterioration” value [11, 21] was 2 (1.5) no. (%). The Mouth ulceration [11, 21] was 1 (0.7) no. (%), the Nail discoloration [11, 21] was 1 (0.7) no. (%) and the Pneumonia aspiration [11, 21] was 1 (0.7) no. (%). The MATE-1 inhibition [12] was “does not inhibit”, the “Contribution of CYP3A4 in the total clearance” value [13] was 20% and the “Antitumor activity in cell lines” value [14] was “demonstrated antitumor activity in FGFR-expressing cell lines”. For the same compound, the BCRP inhibition [15] was “does not inhibit”, the OCT2 inhibition [16] was “inhibitor of OCT2” and the “Contribution of CYP2C9 in the total clearance” value [17] was 39%. The “Antitumor activity in xenograft models” value [18] was “demonstrated antitumor activity in FGFR-expressing cell lines and xenograft models derived from tumor types, including bladder cancer” and the “Exposure by CYP2C9 genotype” value [19] was “Erdafitinib exposure was similar in subjects with CYP2C9*1/*2 and *1/*3 genotypes relative to subjects with CYP2C9*1/*1 genotype (wild type)”.
